{"source": "PubChem BioAssay AID1224826 | NIAID | 2016", "assay": "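Regulators of Tlr4 signalling leading to Tnf-alpha expression in macrophages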 (primary screen)", "cell system": "RAW264.7 G9 macrophages from mouse bearing reporters for p65 (GFP) and the Tnf promoter (mCherry)", "reagents": "siRNA pool against mouse genes, 100 nM", "time to read-out": "16 h of LPS stimulation, after 2 days of siRNA transfection", "challenge": "bacterial lipopolysaccharide (Salmonella minnesota R595), 10 ng/ml", "measurement": "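Imaged Tnf reporter mCherry in nuclei, minus background, normalised per plate to the median and expressed as robust z-scores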", "direction": "Tnf reporter robust z-score: higher = stronger Tnf promoter reporter signal after LPS", "active means": "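a well counts as active at a score of -1.3 or below (Tlr4 knock-down control median) or above 3 (raised signal); controls and wells holding fewer than 50 cells are excluded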", "calls": "active = Tnf reporter clearly lowered or raised; inactive = no clear change in Tnf reporter", "note": "In all, the deposit lists about 17,000 reagents; this is an unselected part. About 1,110 of them (6.6%) were called active. 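Active means lowered or raised reporter signal; replicate intensities are raw and not normalised per plate.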 Reagents against one gene are numbered here. Not all columns of the deposit are shown."}
{"target":"Zcchc9","reagent":1,"Tnf reporter robust z-score":1.86,"fewer than 50 cells in well":"enough cells in well","Call":"inactive"}
{"target":"Prrx1","reagent":1,"Tnf reporter robust z-score":-0.52,"fewer than 50 cells in well":"enough cells in well","Call":"inactive"}
{"target":"Clptm1l","reagent":1,"Tnf reporter robust z-score":-0.38,"fewer than 50 cells in well":"enough cells in well","Call":"inactive"}
{"target":"Commd1","reagent":1,"Tnf reporter robust z-score":-0.82,"fewer than 50 cells in well":"enough cells in well","Call":"inactive"}
{"target":"Tgfb2","reagent":1,"Tnf reporter robust z-score":2.33,"fewer than 50 cells in well":"enough cells in well","Call":"inactive"}
{"target":"Slc25a19","reagent":1,"Tnf reporter robust z-score":0.03,"fewer than 50 cells in well":"enough cells in well","Call":"inactive"}
{"target":"Vrk1","reagent":1,"fewer than 50 cells in well":"fewer than 50 cells per well; well left out of calls","Call":"inactive"}
{"target":"Izumo4","reagent":1,"fewer than 50 cells in well":"fewer than 50 cells per well; well left out of calls","Call":"inactive"}
{"target":"Tspoap1","reagent":1,"Tnf reporter robust z-score":-0.17,"fewer than 50 cells in well":"enough cells in well","Call":"inactive"}
{"target":"Nars1","reagent":1,"Tnf reporter robust z-score":-1.24,"fewer than 50 cells in well":"enough cells in well","Call":"inactive"}
{"target":"Mfsd11","reagent":1,"Tnf reporter robust z-score":0.77,"fewer than 50 cells in well":"enough cells in well","Call":"inactive"}
{"target":"Or8c20","reagent":1,"Tnf reporter robust z-score":-0.52,"fewer than 50 cells in well":"enough cells in well","Call":"inactive"}
{"target":"Prkx","reagent":1,"Tnf reporter robust z-score":-0.37,"fewer than 50 cells in well":"enough cells in well","Call":"inactive"}
{"target":"Il1bos","reagent":1,"Tnf reporter robust z-score":-0.52,"fewer than 50 cells in well":"enough cells in well","Call":"inactive"}
{"target":"Col25a1","reagent":1,"Tnf reporter robust z-score":1.11,"fewer than 50 cells in well":"enough cells in well","Call":"inactive"}
{"target":"Mau2","reagent":1,"fewer than 50 cells in well":"fewer than 50 cells per well; well left out of calls","Call":"inactive"}
{"target":"Alx3","reagent":1,"Tnf reporter robust z-score":-1.07,"fewer than 50 cells in well":"enough cells in well","Call":"inactive"}
{"target":"Dbp","reagent":1,"Tnf reporter robust z-score":-0.77,"fewer than 50 cells in well":"enough cells in well","Call":"inactive"}
{"target":"Fat4","reagent":1,"Tnf reporter robust z-score":-0.52,"fewer than 50 cells in well":"enough cells in well","Call":"inactive"}
{"target":"Fat4","reagent":2,"Tnf reporter robust z-score":-1.08,"fewer than 50 cells in well":"enough cells in well","Call":"inactive"}
{"target":"Zfp566","reagent":1,"Tnf reporter robust z-score":-0.82,"fewer than 50 cells in well":"enough cells in well","Call":"inactive"}
{"target":"Adamts20","reagent":1,"Tnf reporter robust z-score":-0.97,"fewer than 50 cells in well":"enough cells in well","Call":"inactive"}
{"target":"Fzd2","reagent":1,"Tnf reporter robust z-score":0.16,"fewer than 50 cells in well":"enough cells in well","Call":"inactive"}
{"target":"Six2","reagent":1,"Tnf reporter robust z-score":-1.15,"fewer than 50 cells in well":"enough cells in well","Call":"inactive"}
{"target":"Tmeff1","reagent":1,"fewer than 50 cells in well":"fewer than 50 cells per well; well left out of calls","Call":"inactive"}
{"target":"H2ac1","reagent":1,"Tnf reporter robust z-score":-0.33,"fewer than 50 cells in well":"enough cells in well","Call":"inactive"}
{"target":"Esrrb","reagent":1,"Tnf reporter robust z-score":-0.04,"fewer than 50 cells in well":"enough cells in well","Call":"inactive"}

2 neighbouring records already listed, quoted:
{"target":"Slc25a19","reagent":1,"Tnf reporter robust z-score":0.03,"fewer than 50 cells in well":"enough cells in well","Call":"inactive"}
{"target":"Vrk1","reagent":1,"fewer than 50 cells in well":"fewer than 50 cells per well; well left out of calls","Call":"inactive"}
